The whole screen tested about 330,000 compounds, of which about 7,700 (2.3%) were called active. The inconclusive results got no clear call from the source; some entries with a clear call stand among them for comparison. Calls come from the whole dose curve; as a rule, active = well fitted inhibition curve with a large enough effect; inconclusive = small, poorly fitted or top-dose-only effect, or effect the other way; inactive = flat fitted curve, though single readings scatter. A potency beside an inconclusive call is a rough fit, not a confirmed value.
Test: qHTS screen for small molecules that inhibit ELG1-dependent DNA repair in human embryonic kidney (HEK293T) cells expressing luciferase-tagged ELG1; note: nearly all actives have a fitted effect of over 55% in size
Details: HEK293T ELG1-luciferase reporter, luminescence, 16 h, DNA damage induced by 5-fluorouridine; activity change, negative = inhibition: at 46.1 µM (top of the series)
Procedure, shortened: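 5-Fluorouridine DNA damage + compound/DMSO, 2,000 cells/well, 16 h, 37 °C/5% CO2. ONE-Glo, 30 min RT, luminescence. Readout = decrease in reporter signal.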
% is set by controls: 0 for no effect and ±100 for the full control effect; potency is the fitted concentration of half-maximal effect.

Compound | Potency | activity change, negative = inhibition
Cc1cccc(NC(=O)CCSc2nncn2C)c1 | inconclusive: 18.4 µM [activator, partial curve, poor fit] | 
OCCC1CN(Cc2ccc3cc(Cl)ccc3n2)CCN1Cc1ccsc1 (configuration not stated) | inconclusive: 11.6 µM [inhibitor, partial curve, poor fit] | 
C[C@H](CO)N1C[C@H](C)[C@@H](CN(C)S(=O)(=O)c2cccs2)Oc2ccc(NC(=O)Cn3cnnn3)cc2C1=O |  | inactive: -3.13%
CC1(C)CC(=O)C2=C(C1)Nc1cc3c(cc1C2c1ccc(F)cc1)OCO3 (configuration not stated) |  | inactive: -29.4%
O=C(/C=C/N1CCOCC1)c1coc2ccccc12 | inconclusive: 11.6 µM [activator, partial curve] | 
CCn1c(SCC(=O)Nc2ccc(F)cc2)nnc1C1CC1 | inconclusive: 29.1 µM [activator, single point] | 
COc1ccc(N2CCN(C(=O)c3oc4ccccc4c3NC(=O)Cc3ccc(OC)c(OC)c3)CC2)cc1 | inconclusive: 23.1 µM [inhibitor, partial curve] | 
COc1ccccc1/C=C/C(=O)N1CCN(S(=O)(=O)c2cccs2)CC1 | active: 20.6 µM | 
CNS(=O)(=O)c1ccc(NC(=O)c2ccccn2)cc1 | inconclusive: 9.2 µM [activator, partial curve] | 
Cc1ccc(OCC(=O)N2CCN(c3nnc(-c4ccccc4)c4ccccc34)CC2)cc1 | inconclusive: 18.4 µM [inhibitor, single point] | 
CCS(=O)(=O)NCc1ccc2c(c1)cc(C)n2C | inconclusive: 29.1 µM [activator, partial curve, poor fit] | 
COc1ccccc1C(=O)NC(=S)Nc1ccc(N2CCCC2)cc1 | inconclusive: 13 µM [activator, partial curve] | 
COc1ccc(C(=O)Nc2ccc(SC(F)F)cc2)cc1 | inconclusive: 4.11 µM [activator, full curve] | 
O=C(O)C(=O)/C(=C\c1cccc2ccccc12)c1ccc2ccccc2n1 |  | inactive: -14.3%
CCC(CO)Oc1cc(NCc2ccccc2Cl)c2ncn(C(C)C)c2c1 (configuration not stated) | inconclusive: 16.4 µM [inhibitor, partial curve, poor fit] | 
COc1ccc(NC(=O)CN(C)C(=O)c2sc3cc(Cl)ccc3c2Cl)cc1 | inconclusive: 29.1 µM [inhibitor, single point] | 
C=CCn1c(=O)c(C(=O)NCc2ccc3c(c2)OCO3)c(O)c2cc(OC)c(OC)cc21 |  | inactive: 20%
Cc1ccc(C(=O)CCC(=O)N2CCC(C(N)=O)CC2)s1 |  | inconclusive: 28.1% [activator]
Cc1cccc(NC(=S)NNC(=O)c2ccco2)c1 | inconclusive: 20.6 µM [activator, single point] | 
Cc1ccc(NC(=O)CN2C(=O)NC3(CCCCC3C)C2=O)cc1S(=O)(=O)N1CCCCC1 (configuration not stated) |  | inactive: -1.37%
Cc1ccc(C)c(NC(=O)c2cc(-c3cc(C)ccc3O)n[nH]2)c1 | inconclusive: 29.1 µM [inhibitor, single point] | 
CCCCCC(=O)Nc1ccc(S(=O)(=O)NC2=NCCCCC2)cc1 |  | inactive: -1.4%
O=C(C[C@@H]1C/C=C\C[C@@H](Cc2ccc(F)cc2)C(=O)OC[C@H]2CCCN2C1=O)N[C@H](CO)Cc1ccccc1 | inconclusive: 9.2 µM [inhibitor, partial curve, poor fit] | 
COc1cccc(/C=C2\N=C(c3c(-c4ccccc4)noc3C)OC2=O)c1OC |  | inconclusive: 33.5% [activator]

Compound | Potency | activity change, negative = inhibition
Oc1ccccc1Oc1ncc(Br)c(Cl)n1 |  | inactive: 7.2%
CC(OC(=O)/C=C/c1ccc(Br)cc1)C(=O)N1CCOCC1 (configuration not stated) |  | inactive: 5.53%
O=C(CSc1nc2ccccc2s1)N1CCCCC1 | inconclusive: 14.6 µM [activator, partial curve] | 
Cc1ccc2nc(N3C(=O)C(O)=C(C(=O)c4ccco4)C3c3ccc(C)o3)sc2c1 (configuration not stated) | inconclusive: 23.1 µM [activator, single point] | 
S=c1[nH]nc(CN2CCCCC2)n1-c1ccc(Cl)cc1 |  | inactive: 3.16%
Cc1ccc(NC(=O)C(=O)NCc2ccco2)c(C)c1 | inconclusive: 23.1 µM [activator, partial curve] | 
O=C(Cn1cc(C(F)(F)F)cc(Cl)c1=O)NCc1ccccc1 | inconclusive: 18.3 µM [activator, partial curve] | 
CCOC(=O)c1ccccc1NC(=O)CN(c1ccccc1OCC)S(C)(=O)=O |  | inactive: -29.1%
COc1ccc(/C=C2\CCc3ccccc3C2=O)cc1Cn1cccn1 |  | inactive: -3.13%
O=C(NCc1ccco1)C1CCCN(S(=O)(=O)c2ccc(Cl)cc2)C1 (configuration not stated) | inconclusive: 29.1 µM [inhibitor, partial curve, poor fit] | 
COc1ccc(OC)c(/C=N/NC(=O)c2cc3c(OC)c(OC)ccc3[nH]2)c1 | inconclusive: 23.1 µM [inhibitor, single point] | 
COC(=O)c1cc(S(=O)(=O)N2CCN(Cc3ccccc3)CC2)cn1C |  | inactive: 2.56%
O=C(Nc1ccc(Cc2ccncc2)cc1)c1ccc(S(=O)(=O)N2CCOCC2)cc1 | active: 13 µM | 
Nc1nc(Cl)nc(N(c2ccccc2)c2ccccc2)n1 | inconclusive: 18.4 µM [activator, partial curve, poor fit] | 
CC(Oc1ccccc1)C(=O)Nc1nnc(S(=O)(=O)Nc2ccccc2)s1 (configuration not stated) |  | inactive: 4.23%
CCCCn1c(SCc2ccc(Cl)cc2)nc2c1c(=O)[nH]c(=O)n2C | inconclusive: 16.4 µM [inhibitor, single point] | 
CCOc1ccc(Br)cc1/C=N/NC(=O)c1ccncc1 |  | inactive: 0.0262%
O=C(CCC(=O)N/N=C/c1ccccc1O)NCc1ccccc1 |  | inactive: -11.7%
COc1c(C)cc(S(=O)(=O)NCc2ccco2)c(C)c1C | inconclusive: 9.2 µM [activator, partial curve, poor fit] | 
CCCC(=O)c1c[nH]c(C(=O)NCCc2ccccn2)c1 | inconclusive: 23.1 µM [activator, single point] | 
O=C(O)c1ccc2c(c1)SC1=NS(=O)(=O)CCN12 |  | inactive: 3.12%
COc1ccc(CNC(=O)CSc2nnc(C3CC3)n2C2CC2)cc1 |  | inactive: 10.8%
CC(=O)CCc1c(C)nc2ccc(C)cc2c1Cl |  | inactive: 7.16%
Cc1csc(NC(=O)CSc2nsc(SCC(=O)Nc3nc(C)cs3)c2C#N)n1 | inconclusive: 1.84 µM [activator, partial curve] | 

Compound | Potency | activity change, negative = inhibition
C1=C(CCNc2ncnc3c2cnn3-c2ccccc2)CCCC1 | inconclusive: 3.66 µM [activator, full curve] | 
CC(=O)c1cccc(NC(=O)C2C3C=CC(C4CC34)C2C(=O)O)c1 (configuration not stated) |  | inactive: 5.22%
COc1ccc(C=O)c2[nH]c3c(Cl)ncnc3c12 | inconclusive: 29.1 µM [activator, single point] | 
CC(C)(C)c1ccc(C(=O)c2c[nH]c(C(=O)NCCCn3ccnc3)c2)cc1 | inconclusive: 16.4 µM [activator, partial curve] | 
COc1cccc(-c2nc(NCc3ccco3)c3ccccc3n2)c1O | inconclusive: 25.9 µM [inhibitor, partial curve] | 
Cc1ccc(NC(=O)NNC(=O)c2cc3ccccc3cc2O)cc1C |  | inactive: 7.16%
CCOC(=O)c1c(NC(=O)CN2CCN(C)CC2)sc(C(=O)Nc2ccccc2)c1C | inconclusive: 29.1 µM [activator, single point] | 
Cc1cccc(N2CCN(C(=O)c3cc(S(=O)(=O)N(C)C)ccc3N3CCCC3)CC2)c1C | inconclusive: 29.1 µM [inhibitor, single point] | 
CC(C)c1cccc(OCCCCN(C)C)c1 |  | inactive: -8.34%
Cc1cc(NC(=O)CCSc2nc(-c3ccco3)cc(C(F)(F)F)n2)n(-c2ccccc2)n1 | active: 25.9 µM | 
CCOC(=O)N1CCC(NC(=O)C2CCCN(Cc3nc(-c4cccc(Cl)c4)oc3C)C2)CC1 (configuration not stated) | active: 9.2 µM | 
Cc1nc(NC(=O)CN(C)S(=O)(=O)c2ccc(Cl)cc2)sc1C | inconclusive: 16.4 µM [inhibitor, partial curve] | 
CCOC(=O)C(=NC1CCS(=O)(=O)C1)NNc1cc(Cl)ccc1Cl (configuration not stated) | inconclusive: 0.651 µM [inhibitor, single point] | 
Cc1ccc(S(=O)(=O)N2CCN(C(=O)COC(=O)CNC(=O)c3ccc(Cl)cc3Cl)CC2)cc1 |  | inconclusive: 58% [activator]
Cc1ccc(-n2c(O)c(/C=N/c3ncn[nH]3)c3ccccc3c2=O)cc1 | inconclusive: 4.61 µM [inhibitor, partial curve, poor fit] | 
Clc1ccc(-c2nc3ncccn3c2Cl)cc1 | inconclusive: 20.6 µM [activator, partial curve, poor fit] | 
CC(Sc1nc2ccccc2c(=O)n1CC1CCCO1)C(=O)N(C)Cc1ccccc1 (configuration not stated) | inconclusive: 9.2 µM [inhibitor, single point] | 
Cc1ccc(NC(=O)N2CCCN(Cc3ccc(F)cc3)C2)cc1C |  | inactive: 11.5%
CCOC(=O)Cc1csc(NC(=O)CSc2nnc(-c3ccc(F)cc3)o2)n1 |  | inactive: 10.6%
COc1cccc(CNC(=O)C2CCN(S(=O)(=O)c3ccc4c(c3)NC(=O)C(C)S4)CC2)c1 (configuration not stated) |  | inactive: -11.1%
CC(=O)c1cccc(OCC(=O)c2cc(C)n(-c3cc(C)on3)c2C)c1 | inconclusive: 35.5 µM [inhibitor, single point] | 
O=S(=O)(Nc1cccc(S(=O)(=O)N2CCCC2)c1)c1cccs1 | inconclusive: 29.1 µM [inhibitor, single point] | 
COc1ccc(CCNC(=O)C(=O)NCC2OCCN2S(=O)(=O)c2ccc(Br)cc2)cc1OC (configuration not stated) | active: 20.6 µM | 
COc1cc2c(cc1OC)CC(=O)N(C)CC2 | inconclusive: 20.6 µM [activator, single point] | 

3 records drawn at random from the list so far:
Compound | Potency | activity change, negative = inhibition
Cc1nc(NC(=O)CN(C)S(=O)(=O)c2ccc(Cl)cc2)sc1C | inconclusive: 16.4 µM [inhibitor, partial curve] | 
CC(=O)c1cccc(OCC(=O)c2cc(C)n(-c3cc(C)on3)c2C)c1 | inconclusive: 35.5 µM [inhibitor, single point] | 
Cc1ccc(NC(=O)NNC(=O)c2cc3ccccc3cc2O)cc1C |  | inactive: 7.16%

Source: PubChem BioAssay AID504467 (National Center for Advancing Translational Sciences (NCATS), 2011)
